Test results reported in the supplement of paper PMC4604168 (melanoma cell lines).
This is one part of the list. Many values rest on one well or one pass, so single values are uncertain.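 Cells were imaged in 1,536-well plates, and nuclei stained with an antibody against cleaved PARP were counted against all DNA-stained nuclei to give the apoptosis fraction. Screening doses were chosen to leave most cells alive, and resting and induced cleaved-PARP levels differ strongly between cell lines.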

Experiments:
Assay in all cases: cleaved PARP positive nuclei fraction relative to DMSO control; melanoma cells; higher = more apoptosis
Conditions in all cases: library dose: low library concentration; 72 h
[1] = tested on: COLO792
[2] = tested on: COLO800
[3] = tested on: COLO829
[4] = tested on: G361
[5] = tested on: IPC-298
[6] = tested on: IST-MEL1
[7] = tested on: LB2518-MEL
[8] = tested on: LOXIMVI
[9] = tested on: MEL-HO

| Compound | cleaved PARP positive nuclei fraction [1] [%] | cleaved PARP positive nuclei fraction [2] [%] | cleaved PARP positive nuclei fraction [3] [%] | cleaved PARP positive nuclei fraction [4] [%] | cleaved PARP positive nuclei fraction [5] [%] | cleaved PARP positive nuclei fraction [6] [%] | cleaved PARP positive nuclei fraction [7] [%] | cleaved PARP positive nuclei fraction [8] [%] | cleaved PARP positive nuclei fraction [9] [%] |
| --- | --- | --- | --- | --- | --- | --- | --- | --- | --- |
| Cn1sc(=O)n(Cc2ccccc2)c1=O + Cc1ccc(NC(=O)c2cccc(N(C)C)c2)cc1NC(=O)c1ccc(O)cc1 [ZM336372] (first compound 0.4 µM, partner dose 2 µM) | 124 | 65 | 106 | 114 | 105 | 158 | 213 | 115 | 76.8 |
| CC1(C)CCC(c2ccc(Cl)cc2)=C(CN2CCN(c3ccc(C(=O)NS(=O)(=O)c4ccc(N[C@H](CCN5CCOCC5)CSc5ccccc5)c(S(=O)(=O)C(F)(F)F)c4)cc3)CC2)C1 + CN(C)S(=O)(=O)c1ccc2c(c1)/C(=C/c1cc3c([nH]1)CCCC3)C(=O)N2 [SU6656] (first compound 0.4 µM, partner dose 0.4 µM) | 400 | 111 | 87.1 | 127 | 48.4 | 65.5 | 50.8 | 352 | 79.3 |
| NC(=O)c1ccc(N(C(N)=O)c2c(F)cccc2F)nc1-c1ccc(F)cc1F + CN(NC(=O)CC(=O)NN(C)C(=S)c1ccccc1)C(=S)c1ccccc1 [STA4783] (first compound 0.4 µM, partner dose 0.006 µM) | 194 | 82.5 | 91.5 | 61 | 22.9 | 165 | 271 | 56 | 68 |
| C[C@@H](N)c1ccc(C(=O)Nc2ccnc3[nH]ccc23)cc1 + O=C(CCCCCCC(=O)Nc1ccccc1)NO [vorinostat] (first compound 0.4 µM, partner dose 0.08 µM) | 192 | 58.1 | 123 | 75.8 | 45.1 | 68.9 | 22.5 | 398 | 185 |
| CCCCCCCCc1ccc(CCC(N)(CO)CO)cc1 [fingolimod] + CO[C@@H]1[C@H](N(C)C(=O)c2ccccc2)C[C@H]2O[C@]1(C)n1c3ccccc3c3c4c(c5c6ccccc6n2c5c31)C(=O)NC4 [Midostaurin] (first compound 2 µM, partner dose 0.08 µM) | 64.4 | 50.1 | 56.1 | 109 | 47.4 | 192 | 26.6 | 142 | 49.5 |
| CCCCCCCCc1ccc(CCC(N)(CO)CO)cc1 [fingolimod] + Cn1cncc1[C@@](N)(c1ccc(Cl)cc1)c1ccc2c(c1)c(-c1cccc(Cl)c1)cc(=O)n2C [tipifarnib] (first compound 2 µM, partner dose 0.01 µM) | 158 | 78.4 | 208 | 48.2 | 92.9 | 35.4 | 125 | 269 | 70.1 |
| NC(=O)c1ccc(N(C(N)=O)c2c(F)cccc2F)nc1-c1ccc(F)cc1F + O=C(O)c1ccc(-c2c[nH]c3ncc(-c4ccccc4)cc23)cc1C1CCCC1 [GSK650394] (first compound 0.4 µM, partner dose 0.16 µM) | 84.5 | 59.2 | 98.6 | 49.9 | 92.8 | 159 | 99.1 | 119 | 64.8 |
| Cn1cnc2c(F)c(Nc3ccc(Br)cc3Cl)c(C(=O)NOCCO)cc21 [selumetinib] + Cn1cncc1[C@@](N)(c1ccc(Cl)cc1)c1ccc2c(c1)c(-c1cccc(Cl)c1)cc(=O)n2C [tipifarnib] (first compound 0.015 µM, partner dose 0.01 µM) | 54.5 | 82 | 110 | 209 | 74.3 | 211 | 130 | 290 | 222 |
| Cn1sc(=O)n(Cc2ccccc2)c1=O + CN(C)S(=O)(=O)c1ccc2c(c1)/C(=C/c1cc3c([nH]1)CCCC3)C(=O)N2 [SU6656] (first compound 0.4 µM, partner dose 0.4 µM) | 133 | 151 | 85.2 | 132 | 93.9 | 101 | 179 | 144 | 64 |
| NC(=O)c1ccc(N(C(N)=O)c2c(F)cccc2F)nc1-c1ccc(F)cc1F + CC1(C)NC(=O)N(c2ccc([N+](=O)[O-])c(C(F)(F)F)c2)C1=O [nilutamide] (first compound 0.4 µM, partner dose 1 µM) | 213 | 41.5 | 101 | 91.9 | 22 | 63.6 | 333 | 48.6 | 61.5 |
| CN(c1ncccc1CNc1nc(Nc2ccc3c(c2)CC(=O)N3)ncc1C(F)(F)F)S(C)(=O)=O + CN(NC(=O)CC(=O)NN(C)C(=S)c1ccccc1)C(=S)c1ccccc1 [STA4783] (first compound 0.08 µM, partner dose 0.006 µM) | 160 | 136 | 128 | 66.7 | 133 | 55.7 | 96.7 | 67.9 | 71.9 |
| COc1ccc(C2=N[C@@H](c3ccc(Cl)cc3)[C@@H](c3ccc(Cl)cc3)N2C(=O)N2CCNC(=O)C2)c(OC(C)C)c1 [Nutlin-3] + O=C(O)c1ccc(-c2c[nH]c3ncc(-c4ccccc4)cc23)cc1C1CCCC1 [GSK650394] (first compound 0.1 µM, partner dose 0.16 µM) | 80.1 | 141 | 174 | 234 | 60.9 | 67.8 | 98.2 | 67 | 153 |
| COc1ccc(C2=N[C@@H](c3ccc(Cl)cc3)[C@@H](c3ccc(Cl)cc3)N2C(=O)N2CCNC(=O)C2)c(OC(C)C)c1 [Nutlin-3] + COc1cc(Nc2ncc(F)c(Nc3ccc4c(n3)NC(=O)C(C)(C)O4)n2)cc(OC)c1OC [Tamatinib] (first compound 0.1 µM, partner dose 0.4 µM) | 230 | 70.9 | 185 | 19.1 | 54 | 79.2 | 120 | 49.9 | 115 |
| CC1(C)CCC(c2ccc(Cl)cc2)=C(CN2CCN(c3ccc(C(=O)NS(=O)(=O)c4ccc(N[C@H](CCN5CCOCC5)CSc5ccccc5)c(S(=O)(=O)C(F)(F)F)c4)cc3)CC2)C1 + Cn1cncc1[C@@](N)(c1ccc(Cl)cc1)c1ccc2c(c1)c(-c1cccc(Cl)c1)cc(=O)n2C [tipifarnib] (first compound 0.4 µM, partner dose 0.01 µM) | 262 | 19.6 | 111 | 71.1 | 511 | 171 | 261 | 129 | 283 |
| CC1(C)CCC(c2ccc(Cl)cc2)=C(CN2CCN(c3ccc(C(=O)NS(=O)(=O)c4ccc(N[C@H](CCN5CCOCC5)CSc5ccccc5)c(S(=O)(=O)C(F)(F)F)c4)cc3)CC2)C1 + CC(C)(C)c1cnc(CSc2cnc(NC(=O)C3CCNCC3)s2)o1 [SNS-032] (first compound 0.4 µM, partner dose 0.01 µM) | 593 | 128 | 126 | 72.3 | 135 | 133 | 126 | 80.1 | 72.7 |
| CCCCCCCCc1ccc(CCC(N)(CO)CO)cc1 [fingolimod] + NC(=O)Nc1cc(-c2cccc(F)c2)sc1C(=O)N[C@H]1CCCNC1 [AZD7762] (first compound 2 µM, partner dose 0.02 µM) | 78.9 | 105 | 176 | 78.1 | 114 | 104 | 121 | 93.1 | 215 |

Reformatted with tabs: entries from further up
Compound	cleaved PARP positive nuclei fraction [1] [%]	cleaved PARP positive nuclei fraction [2] [%]	cleaved PARP positive nuclei fraction [3] [%]	cleaved PARP positive nuclei fraction [4] [%]	cleaved PARP positive nuclei fraction [5] [%]	cleaved PARP positive nuclei fraction [6] [%]	cleaved PARP positive nuclei fraction [7] [%]	cleaved PARP positive nuclei fraction [8] [%]	cleaved PARP positive nuclei fraction [9] [%]
CC1(C)CCC(c2ccc(Cl)cc2)=C(CN2CCN(c3ccc(C(=O)NS(=O)(=O)c4ccc(N[C@H](CCN5CCOCC5)CSc5ccccc5)c(S(=O)(=O)C(F)(F)F)c4)cc3)CC2)C1 + CN(C)S(=O)(=O)c1ccc2c(c1)/C(=C/c1cc3c([nH]1)CCCC3)C(=O)N2 [SU6656] (first compound 0.4 µM, partner dose 0.4 µM)	400	111	87.1	127	48.4	65.5	50.8	352	79.3
CCCCCCCCc1ccc(CCC(N)(CO)CO)cc1 [fingolimod] + CO[C@@H]1[C@H](N(C)C(=O)c2ccccc2)C[C@H]2O[C@]1(C)n1c3ccccc3c3c4c(c5c6ccccc6n2c5c31)C(=O)NC4 [Midostaurin] (first compound 2 µM, partner dose 0.08 µM)	64.4	50.1	56.1	109	47.4	192	26.6	142	49.5
